PubChem BioAssay AID1508597 | Cure First – 2020
Test: 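Survival screen with siRNA in ovarian cancer cells derived from patients, with or without rucaparib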 (primary screen). Cell system: human ovarian carcinoma lines grown from tumours: OCI-P5x (papillary serous) and OCI-C5x (clear cell). Knock-down reagent: siRNA pool against human genes, 1.25 pmol siRNA per well. Timing: 72 h or 96 h, depending on the cell culture. Challenge: rucaparib 20 µM (about IC30) or vehicle, present until read-out. Rucaparib or vehicle: Rucaparib. Cell line: OCI-P5x (serous). Read-out: 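ATP luminescence measured at 72 or 96 h according to the culture, then normalised and expressed as percent viability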. Direction: viability, normalised: higher = more viable cells remaining. Rule for the call: 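Active when normalised viability falls below 80 percent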. Meaning of the calls: active = viability under 80%; inactive = viability 80% or more.
Shown is an unselected part of the about 2,100 reagents, under one of the conditions tested. 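Calls flag viability under 80% in either arm, not effects specific to rucaparib; the reference for percent is not stated.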 A number with no mark means an inactive call. The record does not give: the 100% reference.

no.	target gene	PubChem SID	technical replicate	viability, normalised (%)
1	KIF11 (kinesin family member 11)	SID405526944	1	34.4 (active)
2	KIF11 (kinesin family member 11)	SID405526944	2	31.2 (active)
3	KIF11 (kinesin family member 11)	SID405526944	3	42.4 (active)
4	ARID2 (AT-rich interaction domain 2)	SID405527975	1	61.2 (active)
5	ARID2 (AT-rich interaction domain 2)	SID405527975	2	58.6 (active)
6	ARID2 (AT-rich interaction domain 2)	SID405527975	3	69.9 (active)
7	ARID5B (AT-rich interaction domain 5B)	SID405527981	1	51.1 (active)
8	ARID5B (AT-rich interaction domain 5B)	SID405527981	2	54.9 (active)
9	ARID5B (AT-rich interaction domain 5B)	SID405527981	3	56.6 (active)
10	PLCD4 (phospholipase C delta 4)	SID405526711	1	52.7 (active)
11	PLCD4 (phospholipase C delta 4)	SID405526711	2	49.9 (active)
12	PLCD4 (phospholipase C delta 4)	SID405526711	3	51 (active)
13	FES (FES proto-oncogene, tyrosine kinase)	SID405527592	1	66.6 (active)
14	FES (FES proto-oncogene, tyrosine kinase)	SID405527592	2	76 (active)
15	FES (FES proto-oncogene, tyrosine kinase)	SID405527592	3	83.4
16	MYLK3 (myosin light chain kinase 3)	SID405526321	1	61.2 (active)
17	MYLK3 (myosin light chain kinase 3)	SID405526321	2	67.7 (active)
18	MYLK3 (myosin light chain kinase 3)	SID405526321	3	66 (active)
19	PSIP1 (PC4 and SRSF1 interacting protein 1)	SID405527209	1	51.7 (active)
20	PSIP1 (PC4 and SRSF1 interacting protein 1)	SID405527209	2	41.1 (active)
21	PSIP1 (PC4 and SRSF1 interacting protein 1)	SID405527209	3	53.3 (active)
22	BRD1 (bromodomain containing 1)	SID405528041	1	47 (active)
23	BRD1 (bromodomain containing 1)	SID405528041	2	65.7 (active)
24	BRD1 (bromodomain containing 1)	SID405528041	3	65.6 (active)
25	FEN1 (flap structure-specific endonuclease 1)	SID405528270	1	84.3
26	FEN1 (flap structure-specific endonuclease 1)	SID405528270	2	90.4
27	FEN1 (flap structure-specific endonuclease 1)	SID405528270	3	87.1
28	TWF1 (twinfilin actin binding protein 1)	SID405528587	1	117
29	TWF1 (twinfilin actin binding protein 1)	SID405528587	2	110
30	TWF1 (twinfilin actin binding protein 1)	SID405528587	3	102
31	CDH2 (cadherin 2)	SID405528085	1	78.1 (active)
32	CDH2 (cadherin 2)	SID405528085	2	82.7
33	CDH2 (cadherin 2)	SID405528085	3	100
34	MORC2 (MORC family CW-type zinc finger 2)	SID405527022	1	38.1 (active)
35	MORC2 (MORC family CW-type zinc finger 2)	SID405527022	2	42.6 (active)
36	MORC2 (MORC family CW-type zinc finger 2)	SID405527022	3	34.7 (active)
37	GCKR (glucokinase regulator)	SID405526810	1	49.4 (active)
38	GCKR (glucokinase regulator)	SID405526810	2	47.2 (active)
39	GCKR (glucokinase regulator)	SID405526810	3	42.3 (active)
40	PARP16 (poly(ADP-ribose) polymerase family member 16)	SID405527110	1	48.2 (active)
41	PARP16 (poly(ADP-ribose) polymerase family member 16)	SID405527110	2	44.6 (active)
42	PARP16 (poly(ADP-ribose) polymerase family member 16)	SID405527110	3	48.7 (active)
43	GK2 (glycerol kinase 2)	SID405527931	1	91.5
44	GK2 (glycerol kinase 2)	SID405527931	2	82.8
45	GK2 (glycerol kinase 2)	SID405527931	3	71.9 (active)
46	KDM6A (lysine demethylase 6A)	SID405526941	1	64.1 (active)
47	KDM6A (lysine demethylase 6A)	SID405526941	2	55.3 (active)
48	KDM6A (lysine demethylase 6A)	SID405526941	3	55.4 (active)
49	SENP5 (SUMO specific peptidase 5)	SID405526348	1	77.7 (active)
50	SENP5 (SUMO specific peptidase 5)	SID405526348	2	72.6 (active)
51	SENP5 (SUMO specific peptidase 5)	SID405526348	3	42.2 (active)
52	PARP8 (poly(ADP-ribose) polymerase family member 8)	SID405527115	1	25.8 (active)
53	PARP8 (poly(ADP-ribose) polymerase family member 8)	SID405527115	2	25.8 (active)
54	PARP8 (poly(ADP-ribose) polymerase family member 8)	SID405527115	3	38.7 (active)
55	PALS2 (protein associated with LIN7 2, MAGUK p55 family member)	SID405527650	1	48.8 (active)
56	PALS2 (protein associated with LIN7 2, MAGUK p55 family member)	SID405527650	2	73.9 (active)
57	PALS2 (protein associated with LIN7 2, MAGUK p55 family member)	SID405527650	3	50 (active)

Targets listed so far whose target name starts with K or k:
target gene	PubChem SID	technical replicate	viability, normalised (%)
KIF11 (kinesin family member 11)	SID405526944	1	34.4 (active)
KIF11 (kinesin family member 11)	SID405526944	2	31.2 (active)
KIF11 (kinesin family member 11)	SID405526944	3	42.4 (active)
KDM6A (lysine demethylase 6A)	SID405526941	1	64.1 (active)
KDM6A (lysine demethylase 6A)	SID405526941	2	55.3 (active)
KDM6A (lysine demethylase 6A)	SID405526941	3	55.4 (active)
